Experimental data from US20110052623A1, “DRIED MICROBIAL CELLS OR MICROORGANISM EXTRACT CONTAINING STABILIZED (SS)-S-ADENOSYL-L-METHIONINE AND METHOD FOR PRODUCTION OF THE DRIED MICROORGANISM CELL OR MICROORGANISM EXTRACT” (KANEKA CORPORATION, priority 2007, published 2011).

Assay: Stabilizing agent: dried yeast cells containing SAM with added compound preserved at 25° C. for 7 days
Assay type: physicochemical
Conditions: compound added at 30% by weight to dried yeast cells
Description: The yeast cells obtained in the Reference Example were suspended in deionized water in one-sixth (⅙) of the amount of the culture solution. Each of the compounds listed in table 3 (30% by weight in terms of dry weight) was separately added to the resultant, followed by freezing at −80° C. and lyophilization. Thus, dried yeast cells containing SAM were obtained.

SAM residual rate: 98.2%
SMILES: Cl.NCCC[C@H](N)C(=O)O [L-ornithine hydrochloride]
